These are yes or no findings as the source states them, for the method shown. Binding seen in cells or lysates may run through a third protein. For some assays here: Binding calls can cover weak binding; strength is not graded here. Tags and fused reporters may be left off the sequences shown.
Columns and labels:
Flag-tagged 14-3-3σ [1] = biological target: T1, Flag-tagged 14-3-3σ (UniProt O70456); assay: co-IP; CCE cells co-transfected with 14-3-3σ-Flag and GSK-3β WT, S9A or T309A, RIPA lysate; IP with anti-Flag antibody, Western blot with anti-GSK-3β antibody
T1 sequence: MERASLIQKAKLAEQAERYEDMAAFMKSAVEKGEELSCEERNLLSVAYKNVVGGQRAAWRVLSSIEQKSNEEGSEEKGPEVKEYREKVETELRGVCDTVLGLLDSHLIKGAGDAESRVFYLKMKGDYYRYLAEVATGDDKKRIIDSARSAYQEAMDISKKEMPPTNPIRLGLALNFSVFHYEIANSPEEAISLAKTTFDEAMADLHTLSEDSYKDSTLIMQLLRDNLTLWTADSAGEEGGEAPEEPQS

By UniProt entry, the sequences of proteins in these tests, tags left out. Where a name states a change or a piece, a line headed by the entry shows the natural chain unless it says otherwise.
UniProt P49841: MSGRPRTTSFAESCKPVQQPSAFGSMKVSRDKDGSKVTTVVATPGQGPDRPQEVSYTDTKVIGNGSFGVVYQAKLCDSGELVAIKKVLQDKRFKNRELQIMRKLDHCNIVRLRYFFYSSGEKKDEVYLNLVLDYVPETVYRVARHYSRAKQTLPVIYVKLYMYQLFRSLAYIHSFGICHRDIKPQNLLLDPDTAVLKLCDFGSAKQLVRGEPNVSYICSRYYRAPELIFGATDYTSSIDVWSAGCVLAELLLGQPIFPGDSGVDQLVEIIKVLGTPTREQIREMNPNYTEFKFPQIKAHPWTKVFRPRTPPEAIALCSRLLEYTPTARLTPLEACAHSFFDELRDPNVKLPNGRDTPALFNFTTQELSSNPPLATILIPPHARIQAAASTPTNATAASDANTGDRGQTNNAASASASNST

Flag-tagged 14-3-3σ [2] = biological target: T1, Flag-tagged 14-3-3σ; assay: co-IP; mESCs (CCE; also R1 and D3 for 14-3-3σ) transfected with a Flag-tagged 14-3-3 isoform, lysed in RIPA buffer; IP with anti-Flag antibody, Western blot for endogenous proteins

Row | Substance | binding (Flag-tagged 14-3-3σ [1]) | binding (Flag-tagged 14-3-3σ [2])
1 | GSK-3β Thr309A mutant (from UniProt P49841) (enzyme) | binds | –
2 | axin, endogenous (mouse (endogenous in CCE)) | – | no binding

From article PMC3387134
